The supplement of paper PMC10849652
This is one part of the list.

Protein sequences, listed by entry. Tags and fused reporters are not part of them. Lines headed by an entry give the natural chain unless they say otherwise; changes in a name come on top.
UniProt Q8N335: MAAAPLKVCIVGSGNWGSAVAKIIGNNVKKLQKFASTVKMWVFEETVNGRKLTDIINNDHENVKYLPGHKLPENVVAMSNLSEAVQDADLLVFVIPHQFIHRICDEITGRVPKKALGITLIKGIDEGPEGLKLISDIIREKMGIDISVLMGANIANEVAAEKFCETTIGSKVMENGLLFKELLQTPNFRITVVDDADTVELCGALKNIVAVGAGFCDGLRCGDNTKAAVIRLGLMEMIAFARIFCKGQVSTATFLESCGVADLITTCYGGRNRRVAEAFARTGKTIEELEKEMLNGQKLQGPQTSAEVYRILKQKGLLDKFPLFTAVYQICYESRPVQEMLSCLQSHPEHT
UniProt P16278: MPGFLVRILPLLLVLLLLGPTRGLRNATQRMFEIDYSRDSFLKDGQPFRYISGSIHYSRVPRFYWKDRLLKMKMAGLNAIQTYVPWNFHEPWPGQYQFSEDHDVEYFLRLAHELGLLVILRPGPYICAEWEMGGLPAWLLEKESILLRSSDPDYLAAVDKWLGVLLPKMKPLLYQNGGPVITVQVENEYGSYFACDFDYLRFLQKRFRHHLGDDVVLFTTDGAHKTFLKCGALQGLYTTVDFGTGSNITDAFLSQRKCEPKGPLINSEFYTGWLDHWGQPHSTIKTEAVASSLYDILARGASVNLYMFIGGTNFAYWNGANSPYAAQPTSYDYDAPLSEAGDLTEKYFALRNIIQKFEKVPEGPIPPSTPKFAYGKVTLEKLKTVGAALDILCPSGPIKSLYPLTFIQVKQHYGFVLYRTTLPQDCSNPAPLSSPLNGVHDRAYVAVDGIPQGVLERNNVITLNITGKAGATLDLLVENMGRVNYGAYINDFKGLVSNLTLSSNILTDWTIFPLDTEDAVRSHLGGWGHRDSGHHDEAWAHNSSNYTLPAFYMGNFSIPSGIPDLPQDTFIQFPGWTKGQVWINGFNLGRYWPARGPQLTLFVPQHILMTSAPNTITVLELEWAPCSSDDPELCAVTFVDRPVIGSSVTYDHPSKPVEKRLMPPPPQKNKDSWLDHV
UniProt Q8N954: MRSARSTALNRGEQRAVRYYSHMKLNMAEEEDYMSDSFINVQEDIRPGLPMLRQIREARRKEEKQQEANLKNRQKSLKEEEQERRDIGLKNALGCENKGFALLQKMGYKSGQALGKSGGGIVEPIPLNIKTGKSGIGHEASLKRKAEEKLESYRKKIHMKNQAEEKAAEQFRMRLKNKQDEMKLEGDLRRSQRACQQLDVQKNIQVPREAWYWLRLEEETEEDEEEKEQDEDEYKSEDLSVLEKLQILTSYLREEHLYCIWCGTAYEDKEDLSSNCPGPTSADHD
UniProt Q86UL3: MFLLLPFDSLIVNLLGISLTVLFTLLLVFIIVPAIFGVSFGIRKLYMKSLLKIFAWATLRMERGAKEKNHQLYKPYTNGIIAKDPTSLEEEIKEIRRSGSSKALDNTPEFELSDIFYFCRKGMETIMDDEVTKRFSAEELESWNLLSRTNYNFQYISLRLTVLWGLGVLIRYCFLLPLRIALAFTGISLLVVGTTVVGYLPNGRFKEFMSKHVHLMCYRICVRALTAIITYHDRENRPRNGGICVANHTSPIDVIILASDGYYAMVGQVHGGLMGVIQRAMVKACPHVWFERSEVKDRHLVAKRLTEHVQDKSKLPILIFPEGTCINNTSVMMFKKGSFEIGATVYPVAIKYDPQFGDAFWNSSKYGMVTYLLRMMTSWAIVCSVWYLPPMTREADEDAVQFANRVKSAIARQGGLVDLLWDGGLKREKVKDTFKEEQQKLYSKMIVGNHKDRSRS
UniProt O14653: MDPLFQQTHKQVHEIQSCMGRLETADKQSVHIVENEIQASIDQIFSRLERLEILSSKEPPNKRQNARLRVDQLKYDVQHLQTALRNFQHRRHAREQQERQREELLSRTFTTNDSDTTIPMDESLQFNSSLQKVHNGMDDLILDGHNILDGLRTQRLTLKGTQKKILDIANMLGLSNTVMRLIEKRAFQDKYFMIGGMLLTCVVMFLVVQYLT
UniProt Q9P107: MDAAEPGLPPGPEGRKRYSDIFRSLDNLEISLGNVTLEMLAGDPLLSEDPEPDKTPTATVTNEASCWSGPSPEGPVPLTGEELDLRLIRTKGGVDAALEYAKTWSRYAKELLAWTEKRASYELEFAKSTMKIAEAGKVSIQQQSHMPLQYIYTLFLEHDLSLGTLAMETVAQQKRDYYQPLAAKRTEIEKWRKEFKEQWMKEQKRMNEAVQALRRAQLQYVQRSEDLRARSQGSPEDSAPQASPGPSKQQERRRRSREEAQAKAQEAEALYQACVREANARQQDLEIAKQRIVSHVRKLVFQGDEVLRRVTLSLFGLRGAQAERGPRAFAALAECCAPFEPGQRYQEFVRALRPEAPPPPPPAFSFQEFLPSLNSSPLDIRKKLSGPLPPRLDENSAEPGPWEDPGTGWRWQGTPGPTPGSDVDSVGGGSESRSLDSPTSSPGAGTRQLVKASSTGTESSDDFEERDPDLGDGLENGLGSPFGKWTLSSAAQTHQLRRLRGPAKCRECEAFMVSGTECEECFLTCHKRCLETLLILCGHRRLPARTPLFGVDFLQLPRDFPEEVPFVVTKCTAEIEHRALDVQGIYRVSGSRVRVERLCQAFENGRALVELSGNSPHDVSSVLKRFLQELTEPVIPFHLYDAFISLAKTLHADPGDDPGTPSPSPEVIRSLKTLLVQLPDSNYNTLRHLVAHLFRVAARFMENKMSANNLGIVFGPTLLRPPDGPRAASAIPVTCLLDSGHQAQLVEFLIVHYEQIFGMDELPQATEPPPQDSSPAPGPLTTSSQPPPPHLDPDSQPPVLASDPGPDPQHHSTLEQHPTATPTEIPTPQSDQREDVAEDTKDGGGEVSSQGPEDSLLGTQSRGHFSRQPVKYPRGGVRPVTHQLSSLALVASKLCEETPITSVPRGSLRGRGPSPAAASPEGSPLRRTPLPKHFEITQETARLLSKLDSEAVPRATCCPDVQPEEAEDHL
UniProt Q9Y248: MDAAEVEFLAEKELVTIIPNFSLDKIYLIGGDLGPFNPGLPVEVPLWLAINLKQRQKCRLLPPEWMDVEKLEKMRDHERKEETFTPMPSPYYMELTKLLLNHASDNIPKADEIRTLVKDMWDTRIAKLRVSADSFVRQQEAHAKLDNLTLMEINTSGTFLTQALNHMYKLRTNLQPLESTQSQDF
UniProt Q9UJ14: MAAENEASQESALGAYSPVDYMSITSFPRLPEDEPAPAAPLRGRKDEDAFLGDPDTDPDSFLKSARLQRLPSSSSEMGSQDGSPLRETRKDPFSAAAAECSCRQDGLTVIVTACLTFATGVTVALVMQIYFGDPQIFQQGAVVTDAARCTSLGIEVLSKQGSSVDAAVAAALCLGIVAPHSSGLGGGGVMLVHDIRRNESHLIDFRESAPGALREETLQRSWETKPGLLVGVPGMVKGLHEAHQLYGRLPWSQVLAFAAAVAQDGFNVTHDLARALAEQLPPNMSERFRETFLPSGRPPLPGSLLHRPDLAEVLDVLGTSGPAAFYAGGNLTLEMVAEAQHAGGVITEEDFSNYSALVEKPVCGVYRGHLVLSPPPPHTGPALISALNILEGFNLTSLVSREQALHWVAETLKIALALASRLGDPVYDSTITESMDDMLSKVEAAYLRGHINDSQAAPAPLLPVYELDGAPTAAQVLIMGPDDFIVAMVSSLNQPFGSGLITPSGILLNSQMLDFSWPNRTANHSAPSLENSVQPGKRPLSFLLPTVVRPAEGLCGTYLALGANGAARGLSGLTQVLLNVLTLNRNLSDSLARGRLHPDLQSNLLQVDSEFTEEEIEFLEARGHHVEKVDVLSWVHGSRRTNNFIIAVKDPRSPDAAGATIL
UniProt O15228: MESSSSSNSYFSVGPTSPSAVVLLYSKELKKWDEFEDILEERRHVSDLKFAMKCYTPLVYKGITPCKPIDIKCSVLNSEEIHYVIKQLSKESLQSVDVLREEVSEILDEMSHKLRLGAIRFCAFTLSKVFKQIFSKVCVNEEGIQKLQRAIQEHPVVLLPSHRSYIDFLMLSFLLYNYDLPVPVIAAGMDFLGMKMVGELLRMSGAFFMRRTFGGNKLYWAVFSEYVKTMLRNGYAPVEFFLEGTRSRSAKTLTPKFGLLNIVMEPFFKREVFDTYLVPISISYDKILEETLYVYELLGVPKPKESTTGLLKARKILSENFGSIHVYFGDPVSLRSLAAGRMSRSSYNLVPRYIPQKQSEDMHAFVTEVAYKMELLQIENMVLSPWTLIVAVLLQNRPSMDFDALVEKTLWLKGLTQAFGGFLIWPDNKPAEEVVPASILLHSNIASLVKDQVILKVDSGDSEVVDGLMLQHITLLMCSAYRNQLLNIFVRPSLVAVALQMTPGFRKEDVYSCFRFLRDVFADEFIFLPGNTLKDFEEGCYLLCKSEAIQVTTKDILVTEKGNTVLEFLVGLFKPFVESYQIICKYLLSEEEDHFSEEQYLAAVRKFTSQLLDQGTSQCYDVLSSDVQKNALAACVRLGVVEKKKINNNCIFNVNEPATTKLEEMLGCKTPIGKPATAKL
UniProt Q92990: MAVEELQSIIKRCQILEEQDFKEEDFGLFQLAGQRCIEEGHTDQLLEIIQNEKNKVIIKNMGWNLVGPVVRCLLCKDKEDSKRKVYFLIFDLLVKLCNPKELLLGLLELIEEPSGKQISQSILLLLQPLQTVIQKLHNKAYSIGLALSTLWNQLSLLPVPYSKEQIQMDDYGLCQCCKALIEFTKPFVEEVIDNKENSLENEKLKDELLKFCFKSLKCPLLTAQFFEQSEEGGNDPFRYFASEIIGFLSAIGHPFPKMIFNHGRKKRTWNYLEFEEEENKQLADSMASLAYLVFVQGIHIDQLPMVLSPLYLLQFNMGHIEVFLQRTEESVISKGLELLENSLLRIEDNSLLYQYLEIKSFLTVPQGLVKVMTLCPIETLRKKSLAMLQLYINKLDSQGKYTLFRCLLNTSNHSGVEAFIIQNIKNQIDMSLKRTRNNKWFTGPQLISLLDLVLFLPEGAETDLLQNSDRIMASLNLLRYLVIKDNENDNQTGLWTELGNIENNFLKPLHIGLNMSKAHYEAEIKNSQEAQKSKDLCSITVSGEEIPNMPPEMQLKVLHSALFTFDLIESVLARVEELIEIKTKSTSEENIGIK
UniProt Q04760: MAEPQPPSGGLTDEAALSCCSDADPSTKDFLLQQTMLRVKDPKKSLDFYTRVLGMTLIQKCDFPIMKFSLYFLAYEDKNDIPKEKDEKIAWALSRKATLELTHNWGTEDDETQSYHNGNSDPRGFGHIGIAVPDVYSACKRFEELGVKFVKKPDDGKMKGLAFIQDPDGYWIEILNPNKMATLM
UniProt P15586: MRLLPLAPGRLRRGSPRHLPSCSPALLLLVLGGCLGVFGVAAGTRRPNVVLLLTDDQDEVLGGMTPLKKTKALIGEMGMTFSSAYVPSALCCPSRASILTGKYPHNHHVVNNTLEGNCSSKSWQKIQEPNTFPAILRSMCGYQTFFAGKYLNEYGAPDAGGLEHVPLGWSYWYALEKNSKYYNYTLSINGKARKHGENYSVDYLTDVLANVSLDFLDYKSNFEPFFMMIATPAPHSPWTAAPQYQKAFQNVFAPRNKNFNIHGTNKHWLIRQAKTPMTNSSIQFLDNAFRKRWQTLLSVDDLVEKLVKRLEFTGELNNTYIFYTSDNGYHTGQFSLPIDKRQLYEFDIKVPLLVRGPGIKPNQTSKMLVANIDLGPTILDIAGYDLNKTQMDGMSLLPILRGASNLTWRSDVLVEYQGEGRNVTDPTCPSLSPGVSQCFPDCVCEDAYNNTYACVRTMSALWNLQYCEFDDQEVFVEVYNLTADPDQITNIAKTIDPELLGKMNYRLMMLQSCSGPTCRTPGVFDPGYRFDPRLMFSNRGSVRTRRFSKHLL
UniProt Q8IW92: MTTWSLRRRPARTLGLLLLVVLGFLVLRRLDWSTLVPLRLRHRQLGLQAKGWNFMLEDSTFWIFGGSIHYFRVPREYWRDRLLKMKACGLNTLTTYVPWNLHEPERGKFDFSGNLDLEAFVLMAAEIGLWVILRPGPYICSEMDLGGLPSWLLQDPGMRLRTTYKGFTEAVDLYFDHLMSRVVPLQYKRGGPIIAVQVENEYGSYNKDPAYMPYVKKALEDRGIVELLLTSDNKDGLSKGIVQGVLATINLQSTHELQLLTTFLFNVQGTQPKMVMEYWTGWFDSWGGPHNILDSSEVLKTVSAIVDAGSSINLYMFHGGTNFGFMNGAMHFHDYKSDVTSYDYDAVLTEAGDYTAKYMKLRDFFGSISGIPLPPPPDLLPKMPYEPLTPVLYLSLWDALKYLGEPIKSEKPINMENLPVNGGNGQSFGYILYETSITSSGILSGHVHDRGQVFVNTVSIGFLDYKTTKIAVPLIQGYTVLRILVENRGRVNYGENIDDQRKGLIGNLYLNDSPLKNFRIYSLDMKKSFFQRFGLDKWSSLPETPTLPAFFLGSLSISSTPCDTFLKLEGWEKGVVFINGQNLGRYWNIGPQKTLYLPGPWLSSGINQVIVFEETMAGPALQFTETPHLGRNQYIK
UniProt P63218: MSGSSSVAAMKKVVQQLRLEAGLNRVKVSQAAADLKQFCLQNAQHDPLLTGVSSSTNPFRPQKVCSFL

How the values were obtained:
Experiment in all cases: log2 fold change, soluble protein after heating vs DMSO (PISA); higher = thermal stabilisation; K562 lysate, 10 uM; active = over 0.2 and 3.5 SD of the protein, either way, in both replicates (recomputed)
erlotinib = compound: C#Cc1cccc(Nc2ncnc3cc(OCCOC)c(OCCOC)cc23)c1 [erlotinib]
Procedure, shortened: (§1)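 A 30 min treatment with 10 μM compound was applied to crude K562 extract at 1 mg/mL protein in PBS pH 7.4 with 1 mM MgCl2. Heating for 3 min spanned 48°C-58°C, after which aliquots were pooled, adjusted to 0.5% NP-40 at 4°C and spun at 21,000xg for 90 min. TMTpro 16plex LC-MS/MS of the supernatant, with channel sums equalised, gave values recorded as log-two fold change in thermal stability against solvent controls, from duplicates.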

[1] = compound: C/C(=N\NC(=O)C1=CC(=CC=C1)S(=O)(=O)N2CCOCC2)/C3=C(C=CC(=C3)Cl)O
Procedure, shortened: as §1

[2] = compound: C1=CC(=CC=C1C2=NC3=C(N2)C=C(C=C3)C(=O)N)OC4=CC=C(C=C4)Cl
Procedure, shortened: as §1

[3] = compound: C1=CC2=C(C=CC(=C2)/C=C\3/C(=O)NC(=NCC4=CC=CS4)S3)N=C1
Procedure, shortened: as §1

[4] = compound: C1=CC2=NC=CN=C2C=C1/C=C/3\C(=O)NC(=O)S3
Procedure, shortened: as §1

[5] = compound: C1=CC=C(C=C1)C2=NC(=C(N2)C3=CC=NC=C3)C4=CC(=C(C=C4)Cl)O
Procedure, shortened: as §1

[6] = compound: C1=CC=C2C(=C1)C3=NNC4=CC=CC(=C43)C2=O
Procedure, shortened: as §1

[7] = compound: C1CCN(C1)C(=O)NC2=CC=CC(=C2)NC3=NC=C(C(=N3)NCCC4=CN=CN4)Br
Procedure, shortened: as §1

[8] = compound: C1CN(CCC1(CC2=CC=C(C=C2)Cl)N)C3=NC=NC4=C3C=CN4
Procedure, shortened: as §1

IRAK-1-4 Inhibitor I = compound: C1COCCN1CCN2C3=CC=CC=C3N=C2NC(=O)C4=CC(=CC=C4)[N+](=O)[O-] [IRAK-1-4 Inhibitor I]
Procedure, shortened: as §1

ibrutinib = compound: C=CC(=O)N1CCC[C@@H](n2nc(-c3ccc(Oc4ccccc4)cc3)c3c(N)ncnc32)C1 [ibrutinib]
Procedure, shortened: as §1

[9] = compound: CC(=O)c1cnc2ccc(-c3cc(Cl)c(O)c(Cl)c3)nc2c1N[C@H]1CC[C@H](CN(C)C)CC1
Procedure, shortened: as §1

ralimetinib = compound: CC(C)(C)Cn1c(N)nc2ccc(-c3[nH]c(C(C)(C)C)nc3-c3ccc(F)cc3)nc21 [ralimetinib]
Procedure, shortened: as §1

[10] = compound: CC(C)(O)CC(=O)NCCn1ccc2ncnc(Nc3ccc(Oc4cccc(C(F)(F)F)c4)c(Cl)c3)c21
Procedure, shortened: as §1

[11] = compound: CC(C)C1=C2N=C(C=C(N2N=C1)NCC3=CC=CC=C3)NCCCCCCN
Procedure, shortened: as §1

[12] = compound: CC1=C(C(CC(=O)N1)C2=CC=C(C=C2)C(F)(F)F)C(=O)NC3=C(C=C4C(=C3)C=NN4)F
Procedure, shortened: as §1

[13] = compound: CC1=C(C2=C(C=C1)C(=O)C3=CC=CC=C3N2CCCN)C
Procedure, shortened: as §1

[14] = compound: CC1=C(C=C(C=C1)NC(=O)C2=CC(=CC=C2)C(C)(C)C#N)NC3=CC4=C(C=C3)N=CN(C4=O)C
Procedure, shortened: as §1

[15] = compound: CC1=C(C=C(C=C1)NC(=O)C2=CC(=CC=C2)N(C)C)NC(=O)C3=CC=C(C=C3)O
Procedure, shortened: as §1

[16] = compound: CC1=CC=C(C=C1)SC2=C3C=C(SC3=CN=C2)C(=O)N
Procedure, shortened: as §1

Measured: log2 fold change

GPD1L (UniProt Q8N335)
inactive: erlotinib 0.036 | [1] -0.021 | [2] -0.036 | [3] 0.004 | [4] 0.076 | [5] 0.026 | [6] -0.004 | [7] 0.062 | [8] -0.013 | IRAK-1-4 Inhibitor I -0.05 | ibrutinib -0.013 | [9] 0.048 | ralimetinib 0.049 | [10] -0.007 | [11] -0.015 | [12] -0.007 | [13] 0.015 | [14] -0.003 | [15] 0.017 | [16] -0.028

GLB1 (UniProt P16278)
inactive: erlotinib 0.004 | [1] -0.027 | [2] 0.004 | [3] 0.039 | [4] -0.011 | [5] 0.016 | [6] -0.086 | [7] -0.003 | [8] 0.031 | IRAK-1-4 Inhibitor I 0.016 | ibrutinib 0.002 | [9] -0.008 | ralimetinib -0.005 | [10] -0.03 | [11] 0.003 | [12] -0.009 | [13] -0.001 | [14] -0.011 | [15] 0.025 | [16] 0.015

GPATCH11 (UniProt Q8N954)
inactive: erlotinib -0.048 | [1] 0.021 | [2] 0.025 | [3] 0.003 | [4] -0.025 | [5] 0.019 | [6] -0.005 | [7] 0.007 | [8] 0.121 | IRAK-1-4 Inhibitor I -0.014 | ibrutinib 0.031 | [9] -0.012 | ralimetinib 0.006 | [10] -0.01 | [11] 0.002 | [12] -0.003 | [13] -0.017 | [14] 0.03 | [15] 0.005 | [16] -0.03

GPAT4 (UniProt Q86UL3)
inactive: erlotinib -0.034 | [1] -0.014 | [2] 0.025 | [3] -0.042 | [4] 0.014 | [5] -0.03 | [6] -0.045 | [7] -0.027 | [8] 0.038 | IRAK-1-4 Inhibitor I 0.014 | ibrutinib 0.008 | [9] -0.013 | ralimetinib -0.017 | [10] 0.024 | [11] -0.032 | [12] -0.009 | [13] 0.015 | [14] -0.023 | [15] 0.014 | [16] -0.029

GNL2 (UniProt Q13823)
inactive: erlotinib 0.026 | [1] 0.007 | [2] -0.071 | [3] 0.015 | [4] 0.02 | [5] 0.04 | [6] 0.04 | [7] 0.004 | [8] -0.015 | IRAK-1-4 Inhibitor I 0.046 | ibrutinib 0.012 | [9] 0.032 | ralimetinib -0.015 | [10] -0.018 | [11] -0.002 | [12] 0.019 | [13] -0.004 | [14] 0.013 | [15] -0.01 | [16] 0.01

GOSR2 isoform 2 (UniProt O14653)
inactive: erlotinib 0.022 | [1] -0.024 | [2] -0.14 | [3] -0.029 | [4] -0.043 | [5] -0.011 | [6] -0.129 | [7] 0.014 | [8] -0.002 | IRAK-1-4 Inhibitor I 0.023 | ibrutinib 0.064 | [9] 0.008 | ralimetinib -0.003 | [10] 0.005 | [11] -0.021 | [12] -0.049 | [13] 0.001 | [14] -0.02 | [15] -0.004 | [16] -0.032

Reprinted from the results shown (four entries):
GPD1L (UniProt Q8N335)
inactive: erlotinib 0.036 | [1] -0.021 | [2] -0.036 | [3] 0.004 | [4] 0.076 | [5] 0.026 | [6] -0.004 | [7] 0.062 | [8] -0.013 | IRAK-1-4 Inhibitor I -0.05 | ibrutinib -0.013 | [9] 0.048 | ralimetinib 0.049 | [10] -0.007 | [11] -0.015 | [12] -0.007 | [13] 0.015 | [14] -0.003 | [15] 0.017 | [16] -0.028

GLB1 (UniProt P16278)
inactive: erlotinib 0.004 | [1] -0.027 | [2] 0.004 | [3] 0.039 | [4] -0.011 | [5] 0.016 | [6] -0.086 | [7] -0.003 | [8] 0.031 | IRAK-1-4 Inhibitor I 0.016 | ibrutinib 0.002 | [9] -0.008 | ralimetinib -0.005 | [10] -0.03 | [11] 0.003 | [12] -0.009 | [13] -0.001 | [14] -0.011 | [15] 0.025 | [16] 0.015

GPATCH11 (UniProt Q8N954)
inactive: erlotinib -0.048 | [1] 0.021 | [2] 0.025 | [3] 0.003 | [4] -0.025 | [5] 0.019 | [6] -0.005 | [7] 0.007 | [8] 0.121 | IRAK-1-4 Inhibitor I -0.014 | ibrutinib 0.031 | [9] -0.012 | ralimetinib 0.006 | [10] -0.01 | [11] 0.002 | [12] -0.003 | [13] -0.017 | [14] 0.03 | [15] 0.005 | [16] -0.03

GPAT4 (UniProt Q86UL3)
inactive: erlotinib -0.034 | [1] -0.014 | [2] 0.025 | [3] -0.042 | [4] 0.014 | [5] -0.03 | [6] -0.045 | [7] -0.027 | [8] 0.038 | IRAK-1-4 Inhibitor I 0.014 | ibrutinib 0.008 | [9] -0.013 | ralimetinib -0.017 | [10] 0.024 | [11] -0.032 | [12] -0.009 | [13] 0.015 | [14] -0.023 | [15] 0.014 | [16] -0.029

(list continues)

GMIP (UniProt Q9P107)
inactive: erlotinib 0.014 | [1] 0.019 | [2] -0.02 | [3] -0.029 | [4] 0.009 | [5] 0.068 | [6] 0.03 | [7] -0.063 | [8] 0.019 | IRAK-1-4 Inhibitor I 0.025 | ibrutinib 0.182 | [9] 0.027 | ralimetinib 0.023 | [10] -0.11 | [11] -0.017 | [12] 0.029 | [13] 0.03 | [14] 0.019 | [15] -0.068 | [16] 0.045

GINS2 (UniProt Q9Y248)
inactive: erlotinib 0.048 | [1] 0.144 | [2] -0.034 | [3] 0.029 | [4] -0.024 | [5] -0.008 | [6] 0.012 | [7] -0.011 | [8] 0.04 | IRAK-1-4 Inhibitor I 0.025 | ibrutinib 0.093 | [9] -0.014 | ralimetinib -0.02 | [10] -0.04 | [11] 0.019 | [12] -0.031 | [13] 0.046 | [14] 0.026 | [15] 0.015 | [16] 0.049

GGT7 (UniProt Q9UJ14)
inactive: erlotinib -0.04 | [1] 0.07 | [2] 0.021 | [3] -0.116 | [4] 0.094 | [5] -0.059 | [6] 0.018 | [7] 0.026 | [8] -0.023 | IRAK-1-4 Inhibitor I 0.027 | ibrutinib 0.019 | [9] 0.004 | ralimetinib -0.07 | [10] -0.106 | [11] -0.05 | [12] 0.003 | [13] -0.066 | [14] -0.032 | [15] 0.035 | [16] 0.017

GNPAT (UniProt O15228)
inactive: erlotinib 0.026 | [1] -0.032 | [2] -0.08 | [3] 0.013 | [4] 0.033 | [5] -0.022 | [6] -0.055 | [7] -0.062 | [8] -0.047 | IRAK-1-4 Inhibitor I 0.068 | ibrutinib 0.031 | [9] 0.031 | ralimetinib 0.068 | [10] -0.066 | [11] -0.071 | [12] -0.032 | [13] 0.008 | [14] -0.045 | [15] -0.012 | [16] 0.007

GLMN (UniProt Q92990)
inactive: erlotinib -0.016 | [1] -0.011 | [2] 0.039 | [3] 0.01 | [4] 0.029 | [5] 0.007 | [6] -0.025 | [7] -0.002 | [8] -0.013 | IRAK-1-4 Inhibitor I 0 | ibrutinib -0.037 | [9] 0.021 | ralimetinib 0.015 | [10] -0.008 | [11] -0.028 | [12] -0.007 | [13] -0.035 | [14] -0.013 | [15] 0.015 | [16] -0.015

GLO1 (UniProt Q04760)
inactive: erlotinib -0.002 | [1] 0.03 | [2] 0.021 | [3] -0.03 | [4] 0.013 | [5] 0.021 | [6] 0.019 | [7] 0.016 | [8] 0.012 | IRAK-1-4 Inhibitor I 0.013 | ibrutinib -0.033 | [9] 0.011 | ralimetinib -0.03 | [10] -0.027 | [11] -0.002 | [12] -0.03 | [13] -0.033 | [14] 0.022 | [15] -0.012 | [16] -0.003

GNS (UniProt P15586)
inactive: erlotinib -0.012 | [1] -0.033 | [2] 0.03 | [3] -0.025 | [4] -0.036 | [5] -0.011 | [6] -0.004 | [7] 0.013 | [8] -0.015 | IRAK-1-4 Inhibitor I -0.016 | ibrutinib 0.008 | [9] -0.011 | ralimetinib 0.029 | [10] 0.027 | [11] -0.005 | [12] 0.007 | [13] 0.03 | [14] -0.021 | [15] 0.019 | [16] -0.009

GLB1L2 (UniProt Q8IW92)
inactive: erlotinib -0.059 | [1] 0.028 | [2] -0.063 | [3] -0.015 | [4] -0.017 | [5] -0.029 | [6] -0.017 | [7] -0.056 | [8] 0.121 | IRAK-1-4 Inhibitor I -0.022 | ibrutinib 0.011 | [9] -0.023 | ralimetinib 0.015 | [10] -0.013 | [11] 0.013 | [12] -0.15 | [13] -0.036 | [14] -0.014 | [15] 0.056 | [16] 0.041

GORASP2 isoform 3 (UniProt Q9H8Y8)
inactive: erlotinib 0.02 | [1] -0.061 | [2] -0.009 | [3] 0.024 | [4] 0.033 | [5] -0.034 | [6] -0.048 | [7] -0.018 | [8] -0.008 | IRAK-1-4 Inhibitor I 0.007 | ibrutinib 0.058 | [9] 0.019 | ralimetinib 0.034 | [10] -0.055 | [11] -0.003 | [12] 0.021 | [13] 0.009 | [14] -0.017 | [15] -0.011 | [16] 0.022

GNG5 (UniProt P63218)
inactive: erlotinib 0.148 | [1] -0.002 | [2] 0 | [3] 0.004 | [4] -0.015 | [5] -0.056 | [6] 0.007 | [7] 0.026 | [8] 0.042 | IRAK-1-4 Inhibitor I -0.213 | ibrutinib -0.033 | [9] -0.023 | ralimetinib 0.135 | [10] -0.056 | [11] 0.016 | [12] 0.046 | [13] -0.037 | [14] 0.156 | [15] -0.228 | [16] 0.07
